Earlier results in patent US20200407393A1, “Medical Use” (priority 2018, published 2020).
Some results were stated once for a whole list of compounds, not compound by compound. At least one structure is not confirmed: it was looked up by name or label, or the drawing left a doubt.

System: HIV with M184V mutation
Details: M184V mutation selected on a regimen containing 3TC/FTC; cited from earlier work

Nc1ccn([C@@H]2CS[C@H](CO)O2)c(=O)n1 [Example 3TC, lamivudine]
reduction of susceptibility by M184V mutation: > 100 fold
